According to paper PMC4764565:
These are yes or no findings as the source states them, for the method shown. Binding seen in cells or lysates may run through a third protein. Some entries that bind do so weakly or less than the wild type. For part of these data: Tags and fused reporters may be left off the sequences shown.

Chains of the proteins cited; added tags and fusions are not shown. Residues count along the entry.
UniProt O08747, residues 41-931: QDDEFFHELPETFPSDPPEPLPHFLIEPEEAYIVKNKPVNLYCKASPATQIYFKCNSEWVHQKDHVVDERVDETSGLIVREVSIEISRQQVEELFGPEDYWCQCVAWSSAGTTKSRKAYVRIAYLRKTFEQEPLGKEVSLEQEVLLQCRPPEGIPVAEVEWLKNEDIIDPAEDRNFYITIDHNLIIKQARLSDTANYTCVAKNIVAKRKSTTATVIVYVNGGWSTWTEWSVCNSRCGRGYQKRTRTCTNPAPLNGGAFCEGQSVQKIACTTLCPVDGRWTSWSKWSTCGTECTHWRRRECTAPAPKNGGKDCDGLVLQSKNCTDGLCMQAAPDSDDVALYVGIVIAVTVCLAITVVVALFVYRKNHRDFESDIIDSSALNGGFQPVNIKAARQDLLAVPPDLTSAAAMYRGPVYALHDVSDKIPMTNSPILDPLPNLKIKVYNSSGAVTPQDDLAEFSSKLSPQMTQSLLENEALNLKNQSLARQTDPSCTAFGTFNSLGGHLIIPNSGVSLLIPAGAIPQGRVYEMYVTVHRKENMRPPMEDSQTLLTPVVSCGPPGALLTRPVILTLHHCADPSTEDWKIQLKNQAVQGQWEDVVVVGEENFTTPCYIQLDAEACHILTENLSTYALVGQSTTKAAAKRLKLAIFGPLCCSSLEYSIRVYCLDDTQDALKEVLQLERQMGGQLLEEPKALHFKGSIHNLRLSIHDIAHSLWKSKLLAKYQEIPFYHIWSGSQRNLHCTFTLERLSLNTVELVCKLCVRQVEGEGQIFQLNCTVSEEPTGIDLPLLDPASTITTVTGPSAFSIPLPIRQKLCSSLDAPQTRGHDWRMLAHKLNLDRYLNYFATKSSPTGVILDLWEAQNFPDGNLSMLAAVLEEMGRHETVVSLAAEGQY
UniProt P54763, residues 19-986: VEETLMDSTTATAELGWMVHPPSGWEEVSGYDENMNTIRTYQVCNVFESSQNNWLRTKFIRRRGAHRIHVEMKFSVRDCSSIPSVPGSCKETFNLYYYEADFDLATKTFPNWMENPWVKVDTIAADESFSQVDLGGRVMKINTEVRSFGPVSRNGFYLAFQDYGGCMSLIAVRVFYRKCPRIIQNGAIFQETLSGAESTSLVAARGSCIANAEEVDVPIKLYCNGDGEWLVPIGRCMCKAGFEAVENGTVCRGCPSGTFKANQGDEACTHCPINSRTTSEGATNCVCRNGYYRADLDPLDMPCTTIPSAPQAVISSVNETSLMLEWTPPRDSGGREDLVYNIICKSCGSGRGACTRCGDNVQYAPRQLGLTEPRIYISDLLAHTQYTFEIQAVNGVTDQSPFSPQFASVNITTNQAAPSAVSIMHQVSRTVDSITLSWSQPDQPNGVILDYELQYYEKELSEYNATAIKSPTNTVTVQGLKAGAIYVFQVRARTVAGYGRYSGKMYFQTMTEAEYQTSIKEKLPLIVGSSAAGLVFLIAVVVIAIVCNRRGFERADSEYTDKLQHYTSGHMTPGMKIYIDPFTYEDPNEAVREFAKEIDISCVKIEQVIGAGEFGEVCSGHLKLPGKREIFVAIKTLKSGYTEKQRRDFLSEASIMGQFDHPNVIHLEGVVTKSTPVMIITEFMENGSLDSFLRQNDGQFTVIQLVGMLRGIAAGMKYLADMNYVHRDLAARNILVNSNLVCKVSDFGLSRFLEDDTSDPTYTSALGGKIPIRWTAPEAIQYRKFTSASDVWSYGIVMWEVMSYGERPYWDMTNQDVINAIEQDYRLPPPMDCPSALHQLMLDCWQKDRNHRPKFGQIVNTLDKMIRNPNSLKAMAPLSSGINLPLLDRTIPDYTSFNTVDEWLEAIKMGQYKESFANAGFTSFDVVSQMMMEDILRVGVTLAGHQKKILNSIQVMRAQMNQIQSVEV

Experiments:
Unc5c-Myc (mouse) = Unc5c-Myc (mouse) (UniProt O08747); assay: co-IP; reciprocal: Myc antibody on ProteinA/G agarose, lysates of Unc5c-Myc- and Ephb2-GFP-transfected HEK293 cells; EphB2-GFP detected
EphB2-GFP (mouse) = EphB2-GFP (mouse) (UniProt P54763); assay: co-IP; anti-GFP antibody on ProteinA/G agarose, overnight, pre-cleared lysates of co-transfected HEK293 cells (10mM Tris-Cl pH 8, 137 mM NaCl, 2mM EDTA, 1% NP40); blot for Myc; in the ligand experiments cells were starved 2 hr in OPTIMEM and incubated 15 min at 37°C with pre-clustered Fc, eB2-Fc or eA3-Fc (1.5 μg/ml), Netrin-1 (250 ng/ml) or eB2-Fc+Netrin-1 before lysis
EphA3-GFP = target: T1, EphA3-GFP (UniProt P29320); assay: as above
T1 sequence: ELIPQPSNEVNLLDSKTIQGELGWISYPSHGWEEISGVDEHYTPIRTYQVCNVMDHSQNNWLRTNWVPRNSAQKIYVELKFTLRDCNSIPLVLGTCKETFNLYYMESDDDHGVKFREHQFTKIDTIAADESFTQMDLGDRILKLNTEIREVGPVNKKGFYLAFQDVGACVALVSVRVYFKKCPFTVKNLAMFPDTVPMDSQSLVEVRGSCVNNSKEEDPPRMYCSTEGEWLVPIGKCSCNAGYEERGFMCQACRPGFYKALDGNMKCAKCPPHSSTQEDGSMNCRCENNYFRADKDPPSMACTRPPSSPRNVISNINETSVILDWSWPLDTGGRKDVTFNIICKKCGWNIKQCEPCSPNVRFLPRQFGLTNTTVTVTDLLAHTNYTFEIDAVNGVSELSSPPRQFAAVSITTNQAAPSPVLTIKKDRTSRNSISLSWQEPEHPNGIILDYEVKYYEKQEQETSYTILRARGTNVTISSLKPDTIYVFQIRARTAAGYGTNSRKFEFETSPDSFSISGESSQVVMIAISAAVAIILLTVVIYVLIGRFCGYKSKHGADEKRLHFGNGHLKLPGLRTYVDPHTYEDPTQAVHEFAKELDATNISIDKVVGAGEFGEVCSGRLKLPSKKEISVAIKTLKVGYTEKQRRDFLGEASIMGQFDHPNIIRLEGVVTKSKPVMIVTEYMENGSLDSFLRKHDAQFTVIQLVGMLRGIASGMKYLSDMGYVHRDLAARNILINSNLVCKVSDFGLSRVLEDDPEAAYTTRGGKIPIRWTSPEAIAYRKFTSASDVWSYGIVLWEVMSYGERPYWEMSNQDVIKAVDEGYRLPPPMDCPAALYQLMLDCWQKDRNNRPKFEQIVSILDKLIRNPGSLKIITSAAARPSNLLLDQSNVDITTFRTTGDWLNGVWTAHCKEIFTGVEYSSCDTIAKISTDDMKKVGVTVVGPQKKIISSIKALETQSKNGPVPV

| binding (Unc5c-Myc (mouse)) | binding (EphB2-GFP (mouse)) | binding (EphA3-GFP) | Substance |
| --- | --- | --- | --- |
| binds | – | – | EphB2-GFP (from UniProt P54763 19-986) (receptor) |
| – | binds | no binding | Unc5c-Myc (from UniProt O08747 41-931) (receptor) |
